Data from paper PMC10612308.
Results are given in words; binding and its absence hold for the method and conditions named. Binding seen in cells or lysates may run through a third protein. Some binding calls cover weakened binding; strength is not graded here.

By UniProt entry, the sequences of proteins in these tests, tags left out.
UniProt Q9BVK8: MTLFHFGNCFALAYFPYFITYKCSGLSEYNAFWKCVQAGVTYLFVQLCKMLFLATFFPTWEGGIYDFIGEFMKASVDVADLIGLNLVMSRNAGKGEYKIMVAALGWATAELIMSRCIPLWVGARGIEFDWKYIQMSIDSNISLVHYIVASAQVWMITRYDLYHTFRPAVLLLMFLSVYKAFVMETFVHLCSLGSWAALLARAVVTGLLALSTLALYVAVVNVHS
UniProt P52630: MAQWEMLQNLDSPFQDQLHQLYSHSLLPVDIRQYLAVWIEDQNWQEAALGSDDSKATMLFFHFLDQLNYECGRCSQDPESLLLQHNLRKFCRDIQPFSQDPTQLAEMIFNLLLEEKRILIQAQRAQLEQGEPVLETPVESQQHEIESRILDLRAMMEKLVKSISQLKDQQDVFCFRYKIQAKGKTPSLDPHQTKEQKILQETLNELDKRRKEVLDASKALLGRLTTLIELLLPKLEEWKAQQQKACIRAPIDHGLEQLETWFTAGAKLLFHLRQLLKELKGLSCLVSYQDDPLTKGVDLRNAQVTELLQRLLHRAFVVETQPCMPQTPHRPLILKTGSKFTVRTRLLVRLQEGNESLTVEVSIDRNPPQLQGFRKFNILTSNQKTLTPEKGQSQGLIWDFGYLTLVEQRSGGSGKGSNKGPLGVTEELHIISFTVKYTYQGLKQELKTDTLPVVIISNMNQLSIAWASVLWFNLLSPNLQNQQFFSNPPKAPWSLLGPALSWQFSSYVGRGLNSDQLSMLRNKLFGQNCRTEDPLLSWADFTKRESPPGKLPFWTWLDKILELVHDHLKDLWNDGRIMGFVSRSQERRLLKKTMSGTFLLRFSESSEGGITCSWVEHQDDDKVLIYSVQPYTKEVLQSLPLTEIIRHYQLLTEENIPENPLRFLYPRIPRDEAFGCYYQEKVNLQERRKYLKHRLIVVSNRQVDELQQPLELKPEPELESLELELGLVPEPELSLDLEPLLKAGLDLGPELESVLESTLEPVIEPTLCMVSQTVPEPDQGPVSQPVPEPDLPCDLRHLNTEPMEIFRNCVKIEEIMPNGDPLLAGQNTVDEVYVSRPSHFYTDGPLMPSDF

Experiments:
[1] = molecular target: Flag-TMEM147 (transmembrane protein 147) (human) (UniProt Q9BVK8); assay: co-IP; HCC cell lysate in co-IP buffer, pre-cleared; antibody against Flag-TMEM147 or control IgG overnight at 4 °C, protein A/G beads, five washes; western blot for STAT2
[2] = molecular target: signal transducer and activator of transcription 2 (STAT2) (human (endogenous in Huh7 and HepG2)) (UniProt P52630); assay: co-IP; HCC cell lysate in co-IP buffer, pre-cleared; antibody against STAT2 or control IgG overnight at 4 °C, protein A/G beads, five washes; western blot for TMEM147

Row | Substance | binding [1] | binding [2]
1 | signal transducer and activator of transcription 2 (STAT2) (from UniProt P52630 1-851) | binds | –
2 | Flag-TMEM147 (transmembrane protein 147) (from UniProt Q9BVK8 1-224) | – | binds
